# Assay results reported in patent publication US10466233B2, “Genetically encoded probe for quantification of lactate and methods for quantifying metabolic rates and lactate transport” (CENTRO DE ESTUDIOS CIENTIFICOS DE VALDIVIA, priority 2012, dated 2019).
# Amino acid sequences for entries named in this document (tags omitted). A change or cut given only in a name is not applied to a line headed by its entry.
# UniProt O95563: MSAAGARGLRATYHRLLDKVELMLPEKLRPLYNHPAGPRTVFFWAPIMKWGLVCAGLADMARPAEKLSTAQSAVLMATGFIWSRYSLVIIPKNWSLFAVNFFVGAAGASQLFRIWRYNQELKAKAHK
# UniProt Q9Y5U8: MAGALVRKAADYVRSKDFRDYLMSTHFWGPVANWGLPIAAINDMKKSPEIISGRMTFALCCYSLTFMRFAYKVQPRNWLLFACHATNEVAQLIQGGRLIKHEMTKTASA
# At least one compound was matched to its structure with a doubt left.
# What was measured:
# [1] = target: mitochondrial pyruvate transporter (PT) in HEK293 cells (Homo sapiens, UniProt O95563+Q9Y5U8); assay: Intracellular lactate on inhibition of the mitochondrial pyruvate transporter; format: cell-based; conditions: 4-CIN at a concentration that does not affect MCT function
# MCT in HEK293 cells = assay: Block of MCT by 4-CIN in HEK293 cells; format: cell-based; conditions: 200 μM 4-CIN; HEK293 cell
structure (smiles),measurement,setting,value
"N#C/C(=C\c1ccc(O)cc1)C(=O)O [4-CIN, α-cyano-4-hydroxycinnamate]",intracellular lactate,[1],led to an increase in intracellular lactate
same,block of MCTs,MCT in HEK293 cells,did not block MCTs to a significant extent
